Data as given in the supplement of paper PMC12067093, “Discovery and optimisation of a covalent ligand for TRIM25 and its application to targeted protein ubiquitination” (Chemical Science, 2025).
This is one part of the list.

Sequences of proteins named here, by UniProt entry; tags and fusion partners are left off. A change or cut given only in a name is not applied to a line headed by its entry.
UniProt P11908: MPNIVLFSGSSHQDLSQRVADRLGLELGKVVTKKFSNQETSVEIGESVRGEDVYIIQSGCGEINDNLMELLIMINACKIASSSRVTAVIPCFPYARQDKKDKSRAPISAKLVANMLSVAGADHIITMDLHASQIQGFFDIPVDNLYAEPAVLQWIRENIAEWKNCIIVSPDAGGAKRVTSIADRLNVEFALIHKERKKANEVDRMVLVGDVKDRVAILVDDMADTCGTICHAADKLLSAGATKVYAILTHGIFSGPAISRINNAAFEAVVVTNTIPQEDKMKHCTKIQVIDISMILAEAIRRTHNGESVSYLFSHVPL
UniProt P60891: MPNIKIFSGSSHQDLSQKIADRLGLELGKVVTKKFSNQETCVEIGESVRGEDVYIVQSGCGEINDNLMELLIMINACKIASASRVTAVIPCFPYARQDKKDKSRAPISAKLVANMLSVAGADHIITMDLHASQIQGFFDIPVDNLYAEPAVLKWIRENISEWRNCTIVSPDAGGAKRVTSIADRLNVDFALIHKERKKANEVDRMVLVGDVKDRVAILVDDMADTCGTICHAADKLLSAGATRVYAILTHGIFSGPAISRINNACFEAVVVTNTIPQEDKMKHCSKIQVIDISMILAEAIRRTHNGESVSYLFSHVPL
UniProt Q05655: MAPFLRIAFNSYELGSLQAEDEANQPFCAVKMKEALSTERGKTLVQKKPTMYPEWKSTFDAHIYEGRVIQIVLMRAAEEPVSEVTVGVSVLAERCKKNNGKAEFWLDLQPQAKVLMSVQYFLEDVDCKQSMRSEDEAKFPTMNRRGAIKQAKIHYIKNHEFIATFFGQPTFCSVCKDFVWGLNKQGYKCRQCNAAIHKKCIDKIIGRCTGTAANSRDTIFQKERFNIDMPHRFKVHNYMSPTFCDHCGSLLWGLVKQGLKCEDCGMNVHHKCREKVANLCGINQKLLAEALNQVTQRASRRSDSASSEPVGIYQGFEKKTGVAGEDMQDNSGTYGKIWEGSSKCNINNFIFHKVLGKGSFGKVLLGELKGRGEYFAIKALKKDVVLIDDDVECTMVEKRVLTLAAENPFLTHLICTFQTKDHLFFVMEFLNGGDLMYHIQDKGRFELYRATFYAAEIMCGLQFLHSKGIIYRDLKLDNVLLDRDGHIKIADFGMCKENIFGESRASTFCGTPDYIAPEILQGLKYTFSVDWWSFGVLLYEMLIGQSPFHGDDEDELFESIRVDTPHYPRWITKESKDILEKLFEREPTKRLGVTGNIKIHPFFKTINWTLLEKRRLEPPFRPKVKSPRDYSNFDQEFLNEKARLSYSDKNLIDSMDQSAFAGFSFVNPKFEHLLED
UniProt O94906: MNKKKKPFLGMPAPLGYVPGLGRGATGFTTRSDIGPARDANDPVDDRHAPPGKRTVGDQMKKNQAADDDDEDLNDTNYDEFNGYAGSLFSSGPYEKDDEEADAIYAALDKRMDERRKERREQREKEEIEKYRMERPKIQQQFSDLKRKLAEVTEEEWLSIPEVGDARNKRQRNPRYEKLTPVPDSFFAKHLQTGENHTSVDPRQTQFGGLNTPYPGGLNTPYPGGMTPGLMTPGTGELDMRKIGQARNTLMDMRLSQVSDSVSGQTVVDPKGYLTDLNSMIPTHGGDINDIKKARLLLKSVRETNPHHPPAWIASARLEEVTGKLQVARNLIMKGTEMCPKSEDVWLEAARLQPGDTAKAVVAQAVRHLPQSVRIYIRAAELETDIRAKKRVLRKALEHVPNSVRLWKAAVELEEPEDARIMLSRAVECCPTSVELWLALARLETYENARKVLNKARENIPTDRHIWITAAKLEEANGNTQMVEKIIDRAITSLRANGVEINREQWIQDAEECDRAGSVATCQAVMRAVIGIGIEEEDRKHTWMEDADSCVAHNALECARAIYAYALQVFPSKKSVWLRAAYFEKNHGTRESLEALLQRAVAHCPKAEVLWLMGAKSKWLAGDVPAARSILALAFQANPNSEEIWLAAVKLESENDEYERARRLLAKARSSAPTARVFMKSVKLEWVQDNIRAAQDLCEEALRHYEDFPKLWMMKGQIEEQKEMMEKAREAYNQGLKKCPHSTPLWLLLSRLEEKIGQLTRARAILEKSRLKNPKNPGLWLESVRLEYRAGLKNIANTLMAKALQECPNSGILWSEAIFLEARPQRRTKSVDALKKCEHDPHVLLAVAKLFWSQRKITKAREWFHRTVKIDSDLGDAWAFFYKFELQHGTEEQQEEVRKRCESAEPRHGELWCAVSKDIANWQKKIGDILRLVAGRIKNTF
UniProt Q9NVM4: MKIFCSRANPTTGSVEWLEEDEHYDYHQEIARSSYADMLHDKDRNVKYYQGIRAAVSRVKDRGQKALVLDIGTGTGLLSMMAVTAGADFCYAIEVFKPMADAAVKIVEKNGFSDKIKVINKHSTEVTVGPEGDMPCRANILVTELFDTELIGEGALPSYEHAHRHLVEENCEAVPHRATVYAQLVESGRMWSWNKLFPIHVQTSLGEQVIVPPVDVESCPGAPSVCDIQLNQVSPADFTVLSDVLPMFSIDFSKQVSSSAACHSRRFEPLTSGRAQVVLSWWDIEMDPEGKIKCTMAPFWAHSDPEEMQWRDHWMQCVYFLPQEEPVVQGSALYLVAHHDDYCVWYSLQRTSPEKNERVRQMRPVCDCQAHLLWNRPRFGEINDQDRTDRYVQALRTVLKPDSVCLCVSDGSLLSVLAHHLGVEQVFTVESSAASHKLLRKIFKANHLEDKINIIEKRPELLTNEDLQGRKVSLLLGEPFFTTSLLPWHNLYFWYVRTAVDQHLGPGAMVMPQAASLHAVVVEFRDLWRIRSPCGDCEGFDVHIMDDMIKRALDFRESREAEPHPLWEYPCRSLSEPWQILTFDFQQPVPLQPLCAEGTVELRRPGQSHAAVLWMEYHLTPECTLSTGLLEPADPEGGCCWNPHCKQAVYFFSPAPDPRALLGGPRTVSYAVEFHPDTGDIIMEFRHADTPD
UniProt Q99873, whole entry, looked up: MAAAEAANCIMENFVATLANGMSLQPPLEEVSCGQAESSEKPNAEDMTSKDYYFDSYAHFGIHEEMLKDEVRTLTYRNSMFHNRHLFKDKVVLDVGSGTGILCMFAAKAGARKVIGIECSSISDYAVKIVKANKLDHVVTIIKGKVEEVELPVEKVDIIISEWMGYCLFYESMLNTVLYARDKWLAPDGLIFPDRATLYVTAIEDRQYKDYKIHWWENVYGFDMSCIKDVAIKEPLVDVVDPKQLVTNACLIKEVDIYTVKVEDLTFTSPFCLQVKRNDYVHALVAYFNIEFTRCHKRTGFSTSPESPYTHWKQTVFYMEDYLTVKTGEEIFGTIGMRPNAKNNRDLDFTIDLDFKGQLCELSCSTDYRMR
UniProt O43395: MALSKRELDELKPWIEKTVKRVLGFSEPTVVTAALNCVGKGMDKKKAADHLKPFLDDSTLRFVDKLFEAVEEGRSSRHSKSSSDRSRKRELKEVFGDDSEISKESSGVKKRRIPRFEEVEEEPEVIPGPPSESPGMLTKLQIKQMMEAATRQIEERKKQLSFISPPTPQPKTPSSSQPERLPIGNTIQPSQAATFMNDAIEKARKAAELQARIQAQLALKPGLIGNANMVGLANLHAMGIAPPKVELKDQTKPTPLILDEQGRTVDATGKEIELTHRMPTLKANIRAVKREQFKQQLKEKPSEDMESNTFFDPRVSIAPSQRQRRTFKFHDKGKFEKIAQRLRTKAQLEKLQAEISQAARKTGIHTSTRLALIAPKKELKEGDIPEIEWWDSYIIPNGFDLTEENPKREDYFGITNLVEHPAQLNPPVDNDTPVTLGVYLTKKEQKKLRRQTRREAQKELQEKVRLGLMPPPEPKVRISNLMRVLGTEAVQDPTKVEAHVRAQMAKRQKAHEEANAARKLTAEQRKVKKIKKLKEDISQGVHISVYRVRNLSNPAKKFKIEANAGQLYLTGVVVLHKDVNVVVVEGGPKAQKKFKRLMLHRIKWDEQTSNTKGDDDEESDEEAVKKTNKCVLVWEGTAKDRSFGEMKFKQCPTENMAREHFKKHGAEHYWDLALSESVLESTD
UniProt O43172: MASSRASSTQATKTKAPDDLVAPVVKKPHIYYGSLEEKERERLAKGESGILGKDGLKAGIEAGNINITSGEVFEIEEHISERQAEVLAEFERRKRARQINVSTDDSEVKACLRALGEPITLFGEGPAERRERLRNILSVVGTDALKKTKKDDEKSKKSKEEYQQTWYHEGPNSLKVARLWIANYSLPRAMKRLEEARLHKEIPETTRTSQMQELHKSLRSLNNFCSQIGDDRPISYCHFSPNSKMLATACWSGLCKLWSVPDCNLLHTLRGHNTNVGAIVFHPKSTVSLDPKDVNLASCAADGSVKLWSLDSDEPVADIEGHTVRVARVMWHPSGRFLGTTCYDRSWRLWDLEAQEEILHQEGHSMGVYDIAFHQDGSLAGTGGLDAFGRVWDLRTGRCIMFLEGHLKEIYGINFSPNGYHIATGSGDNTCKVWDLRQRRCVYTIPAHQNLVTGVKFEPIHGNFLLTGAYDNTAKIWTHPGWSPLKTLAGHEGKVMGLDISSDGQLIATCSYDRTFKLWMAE
UniProt Q6P2P2: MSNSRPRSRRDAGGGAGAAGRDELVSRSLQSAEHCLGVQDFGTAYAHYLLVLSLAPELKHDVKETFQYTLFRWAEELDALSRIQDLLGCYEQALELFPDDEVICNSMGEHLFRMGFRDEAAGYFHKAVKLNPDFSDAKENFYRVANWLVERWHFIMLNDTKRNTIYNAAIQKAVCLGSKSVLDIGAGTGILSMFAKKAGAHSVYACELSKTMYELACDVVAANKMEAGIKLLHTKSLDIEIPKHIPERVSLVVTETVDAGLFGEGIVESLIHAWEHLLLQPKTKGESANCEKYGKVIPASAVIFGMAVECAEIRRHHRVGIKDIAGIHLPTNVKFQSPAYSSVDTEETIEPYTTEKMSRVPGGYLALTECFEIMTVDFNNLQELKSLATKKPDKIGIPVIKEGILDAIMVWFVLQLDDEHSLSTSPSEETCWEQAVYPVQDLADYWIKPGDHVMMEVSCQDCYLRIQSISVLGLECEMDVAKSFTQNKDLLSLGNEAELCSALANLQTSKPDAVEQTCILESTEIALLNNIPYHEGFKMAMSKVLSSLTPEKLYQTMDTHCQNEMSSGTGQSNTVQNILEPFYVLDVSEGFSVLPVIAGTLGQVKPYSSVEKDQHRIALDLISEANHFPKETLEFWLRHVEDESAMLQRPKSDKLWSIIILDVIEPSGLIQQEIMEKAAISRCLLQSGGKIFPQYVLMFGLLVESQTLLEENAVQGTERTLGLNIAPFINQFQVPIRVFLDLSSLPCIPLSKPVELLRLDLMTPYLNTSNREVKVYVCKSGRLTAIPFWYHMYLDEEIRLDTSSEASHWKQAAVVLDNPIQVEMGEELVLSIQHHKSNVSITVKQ
UniProt P10644, whole entry, looked up: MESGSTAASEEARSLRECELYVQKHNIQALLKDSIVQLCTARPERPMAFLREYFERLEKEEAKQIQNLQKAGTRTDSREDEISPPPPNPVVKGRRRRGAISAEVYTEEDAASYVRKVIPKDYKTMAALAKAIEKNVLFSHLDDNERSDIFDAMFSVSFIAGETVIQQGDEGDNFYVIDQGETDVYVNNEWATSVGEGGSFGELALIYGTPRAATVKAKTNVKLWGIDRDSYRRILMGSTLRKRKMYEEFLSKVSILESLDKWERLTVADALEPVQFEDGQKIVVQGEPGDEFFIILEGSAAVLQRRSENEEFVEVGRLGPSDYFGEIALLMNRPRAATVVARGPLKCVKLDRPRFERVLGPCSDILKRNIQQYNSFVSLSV
UniProt P05771, whole entry, looked up: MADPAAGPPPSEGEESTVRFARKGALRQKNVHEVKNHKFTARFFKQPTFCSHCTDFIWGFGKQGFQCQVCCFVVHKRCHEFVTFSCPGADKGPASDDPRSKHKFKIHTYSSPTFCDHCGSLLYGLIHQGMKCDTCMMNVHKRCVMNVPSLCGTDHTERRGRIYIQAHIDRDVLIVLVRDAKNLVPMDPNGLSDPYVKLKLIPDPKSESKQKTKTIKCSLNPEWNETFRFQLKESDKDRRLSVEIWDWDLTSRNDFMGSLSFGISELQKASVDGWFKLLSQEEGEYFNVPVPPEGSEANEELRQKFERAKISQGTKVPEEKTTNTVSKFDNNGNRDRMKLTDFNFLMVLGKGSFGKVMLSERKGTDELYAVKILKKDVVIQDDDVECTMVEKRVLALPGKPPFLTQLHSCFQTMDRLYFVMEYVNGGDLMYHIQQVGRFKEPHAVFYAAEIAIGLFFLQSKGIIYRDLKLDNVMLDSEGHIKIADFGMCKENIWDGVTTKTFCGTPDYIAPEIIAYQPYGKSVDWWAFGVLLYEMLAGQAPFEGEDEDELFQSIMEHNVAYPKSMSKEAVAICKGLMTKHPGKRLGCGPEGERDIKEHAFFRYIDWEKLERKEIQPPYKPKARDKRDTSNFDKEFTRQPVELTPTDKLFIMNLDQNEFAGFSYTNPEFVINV

compound: CC1Cc2ccccc2N1C(=O)C1CCCN(C1)C(=O)CCl (mixture of isomers) [TRIM25 ligand 11 (diastereomer mixture)]; assay: probe-labelled cysteine peptide fold change vs DMSO (competition) (log2 fold change); higher = less target engagement (more negative = stronger competition); details: 10 µM; THP-1; incubation time: 4 h
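Also: competitive chemoproteomic profiling in live THP-1 cells with an iodoacetamide desthiobiotin (IA-DTB) probe, comparing probe-labelled peptide intensities in compound-treated cells against DMSO-treated controls.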

Target	probe-labelled cysteine peptide fold change
PRPS2_P11908_165_NCIIVSPDAGGAK (UniProt P11908)	0.169
PRPS1_P60891_265_INNACFEAVVVTNTIPQEDK (UniProt P60891)	-0.218
PRRC2B_Q5JSZ5_819_AQADFDSCISSQR (UniProt Q5JSZ5)	-0.0855
PRKCD_Q05655_393_DVVLIDDDVECTMVEKR (UniProt Q05655)	-0.374
PRPF6_O94906_901_CESAEPR (UniProt O94906)	-0.174
PRPF6_O94906_837_CEHDPHVLLAVAK (UniProt O94906)	-0.0144
PRMT7_Q9NVM4_571_EAEPHPLWEYPCR (UniProt Q9NVM4)	-0.116
PRMT1_Q99873_103_VVLDVGSGTGILCMFAAK (UniProt Q99873)	0.0238
PRKRA_O75569_77_VTVGDITCTGEGTSK (UniProt O75569)	0.0604
PRPF19_Q9UMS4_355_VTDETSGCSLTCAQFHPDGLIFGTGTMDSQIK (UniProt Q9UMS4)	-0.0399
PRPF3_O43395_630_CVLVWEGTAK (UniProt O43395)	0.0171
PRKDC_P78527_1432_ITAQSIEELCAVNLYGPDAQVDR (UniProt P78527)	-0.284
PRKDC_P78527_1176_WLLAHCGR (UniProt P78527)	-0.0497
PRPF4_O43172_237_SLNNFCSQIGDDRPISYCHFSPNSK (UniProt O43172)	0.0327
PRKDC_P78527_123_CKIPALDLLIK (UniProt P78527)	-0.544
PRPF6_O94906_550_HTWMEDADSCVAHNALECAR (UniProt O94906)	0.0964
PRKDC_P78527_1791_GSCVTQVGLLESVYEMFR (UniProt P78527)	-0.0458
PRPF6_O94906_513_EQWIQDAEECDR (UniProt O94906)	0.35

Target	probe-labelled cysteine peptide fold change
PRPF19_Q9UMS4_351+355_VTDETSGCSLTCAQFHPDGLIFGTGTMDSQIK (UniProt Q9UMS4)	0.0872
PRPF19_Q9UMS4_230_QVASHVGLHSASIPGILALDLCPSDTNK (UniProt Q9UMS4)	-0.148
PRRC2C_Q9Y520_177_ETNDDNYGPGPSLRPPNVACWR (UniProt Q9Y520)	-0.176
PRRC2C_Q9Y520_2340_STTTSDPPNICK (UniProt Q9Y520)	-0.0359
PRKDC_P78527_3281_TRDDWLVSWVQSYCR (UniProt P78527)	-0.0286
PRMT9_Q6P2P2_175_AVCLGSK (UniProt Q6P2P2)	0.061
PRKDC_P78527_232_GLSSLLCNFTK (UniProt P78527)	-0.0882
PRKDC_P78527_3281_DDWLVSWVQSYCR (UniProt P78527)	-0.0472
PRRC2C_Q9Y520_223_IACGPPQAK (UniProt Q9Y520)	-0.127
PRKAR1A_P10644_39_DSIVQLCTARPERPMAFLR (UniProt P10644)	-0.134
PRPF38B_Q5VTL8_113_TAGQTGMCGGVR (UniProt Q5VTL8)	0.02
PRKDC_P78527_1904_INQVFHGSCITEGNELTK (UniProt P78527)	0.0709
PRMT1_Q99873_250_QLVTNACLIK (UniProt Q99873)	0.0519
PRMT9_Q6P2P2_206_AGAHSVYACELSK (UniProt Q6P2P2)	0.206
PRKCD_Q05655_247_VHNYMSPTFCDHCGSLLWGLVK (UniProt Q05655)	-0.0855
PRKCB_P05771_132_CDTCMMNVHKR (UniProt P05771)	-0.182
PREX1_Q8TCU6_558_LVDWLLAQGDCQTR (UniProt Q8TCU6)	0.214
PRKDC_P78527_373_GYGLFAGPCK (UniProt P78527)	0.0188

same assay, conditions: 50 µM; THP-1; incubation time: 4 h

Target	probe-labelled cysteine peptide fold change
PRPS2_P11908_165_NCIIVSPDAGGAK (UniProt P11908)	0.192
PRPS1_P60891_265_INNACFEAVVVTNTIPQEDK (UniProt P60891)	0.109
PRRC2B_Q5JSZ5_819_AQADFDSCISSQR (UniProt Q5JSZ5)	-0.0653
PRKCD_Q05655_393_DVVLIDDDVECTMVEKR (UniProt Q05655)	-0.174
PRPF6_O94906_901_CESAEPR (UniProt O94906)	-0.148
PRPF6_O94906_837_CEHDPHVLLAVAK (UniProt O94906)	-0.182
PRMT7_Q9NVM4_571_EAEPHPLWEYPCR (UniProt Q9NVM4)	-0.0711
PRMT1_Q99873_103_VVLDVGSGTGILCMFAAK (UniProt Q99873)	-0.0463
PRKRA_O75569_77_VTVGDITCTGEGTSK (UniProt O75569)	0.0448
PRPF19_Q9UMS4_355_VTDETSGCSLTCAQFHPDGLIFGTGTMDSQIK (UniProt Q9UMS4)	-0.0705
PRPF3_O43395_630_CVLVWEGTAK (UniProt O43395)	-0.0612
PRKDC_P78527_1432_ITAQSIEELCAVNLYGPDAQVDR (UniProt P78527)	-0.156
PRKDC_P78527_1176_WLLAHCGR (UniProt P78527)	0.244
PRPF4_O43172_237_SLNNFCSQIGDDRPISYCHFSPNSK (UniProt O43172)	-0.552
PRKDC_P78527_123_CKIPALDLLIK (UniProt P78527)	-0.254
PRPF6_O94906_550_HTWMEDADSCVAHNALECAR (UniProt O94906)	0.101
PRKDC_P78527_1791_GSCVTQVGLLESVYEMFR (UniProt P78527)	-0.0224
PRPF6_O94906_513_EQWIQDAEECDR (UniProt O94906)	0.00987

Target	probe-labelled cysteine peptide fold change
PRPF19_Q9UMS4_351+355_VTDETSGCSLTCAQFHPDGLIFGTGTMDSQIK (UniProt Q9UMS4)	0.031
PRPF19_Q9UMS4_230_QVASHVGLHSASIPGILALDLCPSDTNK (UniProt Q9UMS4)	-0.187
PRRC2C_Q9Y520_177_ETNDDNYGPGPSLRPPNVACWR (UniProt Q9Y520)	-0.0927
PRRC2C_Q9Y520_2340_STTTSDPPNICK (UniProt Q9Y520)	-0.198
PRKDC_P78527_3281_TRDDWLVSWVQSYCR (UniProt P78527)	-0.0775
PRMT9_Q6P2P2_175_AVCLGSK (UniProt Q6P2P2)	0.0264
PRKDC_P78527_232_GLSSLLCNFTK (UniProt P78527)	-0.0572
PRKDC_P78527_3281_DDWLVSWVQSYCR (UniProt P78527)	0.0243
PRRC2C_Q9Y520_223_IACGPPQAK (UniProt Q9Y520)	-0.342
PRKAR1A_P10644_39_DSIVQLCTARPERPMAFLR (UniProt P10644)	-0.149
PRPF38B_Q5VTL8_113_TAGQTGMCGGVR (UniProt Q5VTL8)	-0.217
PRKDC_P78527_1904_INQVFHGSCITEGNELTK (UniProt P78527)	-0.162
PRMT1_Q99873_250_QLVTNACLIK (UniProt Q99873)	0.0423
PRMT9_Q6P2P2_206_AGAHSVYACELSK (UniProt Q6P2P2)	0.0703
PRKCD_Q05655_247_VHNYMSPTFCDHCGSLLWGLVK (UniProt Q05655)	-0.16
PRKCB_P05771_132_CDTCMMNVHKR (UniProt P05771)	-0.3
PREX1_Q8TCU6_558_LVDWLLAQGDCQTR (UniProt Q8TCU6)	0.0444
PRKDC_P78527_373_GYGLFAGPCK (UniProt P78527)	0.073
